Literature values, collected in patent publication US20220273587A1 (priority 2019, published 2022).

Details: lidocaine alkalized and combined with a heparinoid, pH above 7; Parsons 2015

In the case of `CCN(CC)CC(=O)Nc1c(C)cccc1C` [lidocaine], the “increase of lidocaine absorption into the bladder wall” value is given as “approximately twofold”.
